PubChem BioAssay AID504764 | Drosophila RNAi Screening Center, 2011
The deposit covers about 22,000 reagents; shown is an unselected part of those with a known target gene and a result. In the full data, 403 (1.9%) are marked active. 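Unnormalised raw counts per well; ratio z-scores behind the hit calls and whether each hit raises or lowers signal are not deposited.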 Entries without a mark were called inactive. Reagents against one gene are numbered here. Not given: the amount of reagent.

Assay: 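Genome-wide screen for regulators of Notch-driven gene expression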 (primary screen)
System: Drosophila Kc167 cells
Reagent: long dsRNA against Drosophila genes
Timing: about 5 days (4 days dsRNA, then 24 h after transfection)
Conditions: transfection of constitutively active membrane-tethered Notch lacking the extracellular domain, read 24 h later
Detection: 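Firefly luciferase from an E(spl)m3 reporter with active Notch, plus control-promoter and uninduced reporter wells for normalisation; unnormalised counts, duplicate wells a and b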
Direction: induced reporter light, run 1, well a and induced reporter light, run 1, well b: higher = more light from the Notch target reporter with active Notch; control promoter light, run 1, well a and control promoter light, run 1, well b: higher = more light from the viral control promoter (cell number, transfection, viability); uninduced reporter light, run 1, well a: higher = more light from the Notch target reporter without active Notch
Call rule: 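Hit if the duplicate-averaged log2 ratio of induced to control-promoter light gives a plate-wise z beyond ±2, or induced to uninduced beyond ±1.8; weak-control or discordant-duplicate wells dropped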
Calls: active = modifier hit (raised or lowered Notch signal); inactive = not a hit

What did the screen give for Srp68?
induced reporter light, run 1, well a: 63485; induced reporter light, run 1, well b: 72985; control promoter light, run 1, well a: 52970; control promoter light, run 1, well b: 25790; uninduced reporter light, run 1, well a: 4340

What is on record for CG3638?
induced reporter light, run 1, well a: 62045; induced reporter light, run 1, well b: 54495; control promoter light, run 1, well a: 83755; control promoter light, run 1, well b: 98760; uninduced reporter light, run 1, well a: 6860

Which result is listed for amx?
induced reporter light, run 1, well a: 40905; induced reporter light, run 1, well b: 40295; control promoter light, run 1, well a: 61760; control promoter light, run 1, well b: 57585; uninduced reporter light, run 1, well a: 5315

What is on record for CG11403?
induced reporter light, run 1, well a: 1.53e5; induced reporter light, run 1, well b: 2.07e5; control promoter light, run 1, well a: 2.07e5; control promoter light, run 1, well b: 2.02e5; uninduced reporter light, run 1, well a: 11020

How did the screen score CG5167?
induced reporter light, run 1, well a: 54865; induced reporter light, run 1, well b: 51085; control promoter light, run 1, well a: 41595; control promoter light, run 1, well b: 37315; uninduced reporter light, run 1, well a: 2578

What did the screen give for Gem3?
induced reporter light, run 1, well a: 2.48e5; induced reporter light, run 1, well b: 1.86e5; control promoter light, run 1, well a: 3.30e5; control promoter light, run 1, well b: 1.96e5; uninduced reporter light, run 1, well a: 11560

Which result is listed for CG9330?
induced reporter light, run 1, well a: 1.62e5; induced reporter light, run 1, well b: 1.41e5; control promoter light, run 1, well a: 1.26e5; control promoter light, run 1, well b: 97655; uninduced reporter light, run 1, well a: 7485

What is on record for Sdb #1?
induced reporter light, run 1, well a: 1.02e5; induced reporter light, run 1, well b: 92620; control promoter light, run 1, well a: 1.27e5; control promoter light, run 1, well b: 97370; uninduced reporter light, run 1, well a: 7680

What is on record for Sdb #2?
induced reporter light, run 1, well a: 1.04e5; induced reporter light, run 1, well b: 1.15e5; control promoter light, run 1, well a: 1.27e5; control promoter light, run 1, well b: 1.67e5; uninduced reporter light, run 1, well a: 9275

What did the screen give for Sdb #3?
induced reporter light, run 1, well a: 1.56e5; induced reporter light, run 1, well b: 1.38e5; control promoter light, run 1, well a: 1.31e5; control promoter light, run 1, well b: 1.43e5; uninduced reporter light, run 1, well a: 14565

Which result is listed for CCHa1-R #1?
induced reporter light, run 1, well a: 1.06e5; induced reporter light, run 1, well b: 69655; control promoter light, run 1, well a: 96975; control promoter light, run 1, well b: 98375; uninduced reporter light, run 1, well a: 6632

What is on record for CCHa1-R #2?
induced reporter light, run 1, well a: 1.52e5; induced reporter light, run 1, well b: 1.10e5; control promoter light, run 1, well a: 1.07e5; control promoter light, run 1, well b: 1.03e5; uninduced reporter light, run 1, well a: 7615

How did the screen score Arl8?
induced reporter light, run 1, well a: 99400; induced reporter light, run 1, well b: 1.01e5; control promoter light, run 1, well a: 93330; control promoter light, run 1, well b: 69735; uninduced reporter light, run 1, well a: 7868

How did the screen score CG15432?
induced reporter light, run 1, well a: 1.07e5; induced reporter light, run 1, well b: 67800; control promoter light, run 1, well a: 89505; control promoter light, run 1, well b: 73275; uninduced reporter light, run 1, well a: 7370

Which result is listed for CG8160?
induced reporter light, run 1, well a: 1.21e5; induced reporter light, run 1, well b: 1.26e5; control promoter light, run 1, well a: 1.28e5; control promoter light, run 1, well b: 1.52e5; uninduced reporter light, run 1, well a: 8215

With CG34459, what does the deposit list?
induced reporter light, run 1, well a: 1.26e5; induced reporter light, run 1, well b: 1.10e5; control promoter light, run 1, well a: 1.30e5; control promoter light, run 1, well b: 1.56e5; uninduced reporter light, run 1, well a: 10675

For CG11710, how do the results read?
induced reporter light, run 1, well a: 85870; induced reporter light, run 1, well b: 90745; control promoter light, run 1, well a: 80520; control promoter light, run 1, well b: 98760; uninduced reporter light, run 1, well a: 9805

With Alms1a, how do the results read?
induced reporter light, run 1, well a: 1.46e5; induced reporter light, run 1, well b: 1.28e5; control promoter light, run 1, well a: 2.56e5; control promoter light, run 1, well b: 2.49e5; uninduced reporter light, run 1, well a: 10040

Part of the list above, reformatted.
Sdb #2
- induced reporter light, run 1, well a: 1.04e5
- induced reporter light, run 1, well b: 1.15e5
- control promoter light, run 1, well a: 1.27e5
- control promoter light, run 1, well b: 1.67e5
- uninduced reporter light, run 1, well a: 9275

Sdb #3
- induced reporter light, run 1, well a: 1.56e5
- induced reporter light, run 1, well b: 1.38e5
- control promoter light, run 1, well a: 1.31e5
- control promoter light, run 1, well b: 1.43e5
- uninduced reporter light, run 1, well a: 14565
